# Data source: PubChem BioAssay AID602196 (INSERM, 2012)
# Test: 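Genes whose knock-down alters cisplatin killing of lung cancer cells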
# Cell system: human A549 lung cancer cells
# Reagent: siRNA pair against human genes
# Duration: 48 h transfection before cisplatin; time from cisplatin to read-out not stated
# Challenge: cisplatin at a dose killing half of control-siRNA cells; exact dose and duration not given
# Measured: 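Shift in cisplatin death relative to control siRNA, from -50 (all cells die) to +50 (no cells die); siRNAs harmful on their own scored 0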
# Direction: two-siRNA summed score (-2 to +2): higher = both siRNAs protect from cisplatin killing; -2 means both sensitise; mean protection from cisplatin (shift in death) and protection from cisplatin (shift in death), siRNA C: higher = protection from cisplatin killing
# Rule for the call: 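siRNAs harmful alone (LDH or WST-1) get 0; others get +1 for less and -1 for more cisplatin killing; genes are active when the two siRNAs give the same sign, summing to ±2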
# Meaning of the calls: active = both siRNAs shift cisplatin killing the same way; inactive = no consistent shift, or siRNA harmful alone
# The deposit covers about 23,000 reagents; shown is a random part of them. Of all reagents, 455 (2%) are marked active. 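Active includes both protection and sensitisation; some change values fall well beyond the stated -50 to +50 range.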 Unmarked entries are inactive. The numbers tell different reagents against one gene apart. Not all columns of the deposit are shown. Not stated in the record: the amount of reagent.
Gene,reagent,two-siRNA summed score (-2 to +2),mean protection from cisplatin (shift in death) (%),"protection from cisplatin (shift in death), siRNA C (%)"
DNAH10,1,1,8.6,2.1
KIAA1143,1,1,11.2,10.8
TSPAN3,1,0,5.4,4.5
ABCA6,1,0,0.9,-2.8
ADPRHL1,1,0,2.4,10.4
ADPRHL1,2,0,2.7,3.4
PCDHB2,1,0,9.9,7.8
AUNIP,1,-1,-10.8,-16.1
IFRD1,1,0,8.5,12.6
LOC440714,1,-1,-6.7,-13.7
TMEM209,1,0,3.6,1
POC1B,1,1,7.8,14.8
ISG20,1,1,24.8,44.1
OBI1,1,1,10.1,13.4
DYNC1LI1,1,0,2.2,3.1
GPER1,1,0,2.3,2.3
LOC441232,1,0,0.8,-0.1
FMO1,1,0,-3,-6.6
LOC439961,1,0,12.8,14.5
PPARA,1,0,-17.9,-21.5
TUBB8P11,1,0,1.2,-3.5
TAF7,1,-1,-6.7,-16.9
LOC440997,1,0,1.9,-2.4
LOC441806,1,0,-3.1,12.3
NDUFB9,1,0,-2.7,-7
RBBP7,1,-1,-10.2,-17.9
SLC25A19,1,0,16.3,16.9
NFX1,1,-1,-12,-32.4
PPP1R14C,1,0,8.2,12.1
MUSK,1,0,11.7,13.6
HAO1,1,0,2.6,-1.4
LOC339210,1,0,8.4,8.6
ZNF302,1,1,12.4,23
DSG2,1,1,4.2,-3.5
LOC401621,1,0,10.1,11.7
TTLL12,1,0,6.8,14.2
SSBP3,1,0,12.6,5.7
KLRC2,1,0,13.1,25.7
KIAA1183,1,0,6.4,-1.2

Records above whose gene name begins with K or k (3):
Gene,reagent,two-siRNA summed score (-2 to +2),mean protection from cisplatin (shift in death) (%),"protection from cisplatin (shift in death), siRNA C (%)"
KIAA1143,1,1,11.2,10.8
KLRC2,1,0,13.1,25.7
KIAA1183,1,0,6.4,-1.2
